Here are results for two molecules from PMC6328613.

One experiment deals with T1, MBP-Scyl1 (UniProt Q96KG9).
T1 sequence: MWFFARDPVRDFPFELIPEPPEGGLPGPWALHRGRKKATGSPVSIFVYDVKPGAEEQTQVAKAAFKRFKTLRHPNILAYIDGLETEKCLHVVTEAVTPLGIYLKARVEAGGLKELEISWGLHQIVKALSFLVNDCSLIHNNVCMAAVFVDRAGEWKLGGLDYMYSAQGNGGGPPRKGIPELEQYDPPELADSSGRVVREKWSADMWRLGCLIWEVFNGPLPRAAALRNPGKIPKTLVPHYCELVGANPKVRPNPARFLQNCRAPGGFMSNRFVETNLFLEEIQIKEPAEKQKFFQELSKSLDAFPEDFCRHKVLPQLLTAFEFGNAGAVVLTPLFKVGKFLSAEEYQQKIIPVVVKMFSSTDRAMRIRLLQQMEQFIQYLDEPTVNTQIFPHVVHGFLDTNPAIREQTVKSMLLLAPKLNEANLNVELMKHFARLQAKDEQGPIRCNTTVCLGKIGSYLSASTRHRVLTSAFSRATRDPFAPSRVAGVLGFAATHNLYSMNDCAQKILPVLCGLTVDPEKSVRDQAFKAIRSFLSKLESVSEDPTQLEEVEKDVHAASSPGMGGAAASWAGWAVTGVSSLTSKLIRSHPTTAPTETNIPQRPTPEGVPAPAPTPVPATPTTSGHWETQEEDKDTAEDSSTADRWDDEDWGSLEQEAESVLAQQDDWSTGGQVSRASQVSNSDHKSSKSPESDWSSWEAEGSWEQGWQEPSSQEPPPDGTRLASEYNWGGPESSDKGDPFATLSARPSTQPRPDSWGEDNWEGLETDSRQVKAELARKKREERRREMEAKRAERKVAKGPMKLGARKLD
The experiment in a line: SPR; ProteOn XPR36, GLH chip; cross-linked anti-MBP antibody, MBP-Scyl1 captured (3000 RU), GST-GORAB variants as analyte at 30 nM, 100 µL/min, 120 s association, 600 s dissociation; 150 mM NaCl, 10 mM HEPES, 0.02% Tween-20, pH 7.4; both purified.

Experiment [1] concerns the target GORAB-mycFKBP (wild type) (human). In words: mitochondrial relocation assay (fluorescence microscopy); HeLaM cells co-transfected with mito-FRB and GORAB-mycFKBP (K190del or wild type); 2.5 µg/mL nocodazole 2 h, then 1 µM rapamycin 3 h; in some samples 5 µg/mL BFA for 15 min; recruitment of co-expressed or endogenous proteins to mitochondria.
The target in experiment [2] is GORABK190del-mycFKBP (human). The description is as above.
Another experiment concerns the target GST-GORAB (human). The experiment in a line: pull-down; GST or GST-GORAB as bait with lysates of cells transiently expressing GFP-tagged Scyl1 constructs; western blotting; only the target purified. On the technique in general: Immunoblotting shows a protein as a band on a membrane.

No constants are given. Whether binding was seen depends on the method and setting. For some of these results: Binding can be weak; no strength is given. Sequences can lack the tags named with a protein. For some of these results: Binding seen in cells or lysates may run through a third protein.

For the molecule GST-GORAB F8L (human), the binding entry with MBP-Scyl1 is reported as “no binding (tested: 30 nM)”.

B1: GFP-Scyl1 (protein, UniProt Q96KG9 1-808)
chain: T1 sequence
As for B1, the binding entry (in experiment [1]; in experiment [2]; with GST-GORAB (human)) was “binds” in each case.
